According to PubChem BioAssay AID624246 (National Center for Advancing Translational Sciences (NCATS), 2012):
Screen size: about 370,000 compounds; about 100 (0.027%) were called active. This list was built around the results that the source calls inconclusive (neither active nor inactive); the mix of calls is not that of the screen. Calls follow the shape of the dose curve; as a rule, active = well fitted inhibition curve with a large enough effect in the polarisation, with a control signal flat; inconclusive = small, poorly fitted or top-dose-only effect, or effect the other way, or a change in a side signal; inactive = no such curve, though single readings can be large or run the other way; the % refers to the polarisation. Potencies beside an inconclusive call are fits to weak or partial responses and may not hold up. “Side channel” marks fits to a control or component signal instead of the main read-out.
For FP activity, negative = inhibition in this document: % of control where 0% means no effect.
Potency is read from the fitted curve at half-maximal effect.

Sequences of proteins named here, by UniProt entry; tags and fusion partners are left off. A change or cut given only in a name is not applied to a line headed by its entry.
UniProt P11308: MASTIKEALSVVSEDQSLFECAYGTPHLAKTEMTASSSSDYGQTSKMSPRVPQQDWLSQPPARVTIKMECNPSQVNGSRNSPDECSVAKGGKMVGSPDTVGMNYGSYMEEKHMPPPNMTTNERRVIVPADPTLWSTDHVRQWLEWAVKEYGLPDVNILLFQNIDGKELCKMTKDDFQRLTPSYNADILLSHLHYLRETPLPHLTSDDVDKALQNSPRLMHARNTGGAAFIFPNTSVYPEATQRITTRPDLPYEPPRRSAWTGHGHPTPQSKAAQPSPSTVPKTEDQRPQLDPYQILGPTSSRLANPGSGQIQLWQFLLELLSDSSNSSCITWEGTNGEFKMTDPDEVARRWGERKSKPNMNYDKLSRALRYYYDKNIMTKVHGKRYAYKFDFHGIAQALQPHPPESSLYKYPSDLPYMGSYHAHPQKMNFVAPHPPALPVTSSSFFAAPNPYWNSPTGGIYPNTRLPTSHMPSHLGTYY

These compounds were tested against Transcriptional regulator ERG (Homo sapiens) (UniProt P11308) (assay: qHTS for Small Molecule Inhibitors of the ERG Ets/DNA interaction). Details: fluorescence polarization, His-ERG Ets domain / labelled DNA; FP activity, negative = inhibition: at 76.9 µM (top of the series).
Procedure, shortened: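 His-tagged ERG Ets domain (1 uM in the protein solution; 300mM KCl, 50mM Tris-HCl, 1mM EDTA, 1mM DTT, pH 7.5) received compound, then a probe mix of 5 nM fluorescein-DNA and 100nM Texas-615-DNA. Fluorescence polarization was read for both dyes.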
In the case of `Cc1ccc(-n2ccnc(NCCc3ccccc3)c2=O)cc1C`, the Potency is reported as inconclusive: 39.8 µM [fluorescent, side channel, partial curve, poor fit]. For `O=C1Cc2c([nH]c3ccc([N+](=O)[O-])cc23)-c2ccccc2N1`, the “FP activity, negative = inhibition” value was inactive: 5.78%. With `COc1ccccc1CN1CC(C(=O)NCCCc2ccc(F)cc2)CCC1=O` (centres undefined) the “FP activity, negative = inhibition” value was inactive: 0.278%. `Cc1ccc(-c2nn3c(C)nnc3c3ccccc23)cc1S(=O)(=O)NC(C)(C)CO` was tested, and the Potency was “inactive”. For `COC(=O)c1ccccc1NC(=S)NC(=O)c1cccc2ccccc12`, the “FP activity, negative = inhibition” value was inactive: 0.264%. With `CN(C)c1ccc(/C=C/C(=O)c2cccc(Br)c2)cc1` the Potency was inconclusive: 8.91 µM [fluorescent, partial curve]. `CCOC(=O)CSc1nc2ccc(NC(=O)c3ccc(F)cc3)cc2s1` was tested, and the Potency was inconclusive: 100 µM [inhibitor, single point]. For `COc1ccccc1-c1cc(C(F)(F)F)nc(N2CCN(c3ccccc3)CC2)n1`, the “FP activity, negative = inhibition” value was inactive: -6.47%. With `COC(=O)c1ccc2c(=O)n(CCN3CCOCC3)c(SCC(=O)Nc3ccc(OC)cc3OC)nc2c1` the Potency was inconclusive: 11.2 µM [inhibitor, single point]. In the case of `COc1ccc(/C=C/C(=O)N2CC(C)OC(C)C2)cc1OC` (centres undefined), the “FP activity, negative = inhibition” value is reported as inactive: -10.7%. With `COc1ccc(OC)c(NC(=O)Cn2cnc3sc(C)c(S(=O)(=O)N4CCN(c5ccccc5OC)CC4)c3c2=O)c1` the Potency was inconclusive: 15.8 µM [inhibitor, partial curve, poor fit]. With `COc1ccc(CNC(=O)c2ccc3c(c2)N(Cc2cccc(Cl)c2)C(=O)c2ccccc2S3)c(OC)c1` the “FP activity, negative = inhibition” value was inactive: 0.0275%. In the case of `COc1ccc(NC(=O)NCc2ccccn2)c(OC)c1`, the Potency is reported as inconclusive: 10 µM [inhibitor, single point]. In the case of `COc1c(Cl)cc(C(=O)Nc2cccc(-c3nc4ccccc4[nH]3)c2)cc1Cl`, the Potency is reported as inconclusive: 35.5 µM [quencher, side channel, partial curve, poor fit]. With `Cc1cccn2c(CNCCc3ccccn3)c(C(=O)N3CCOCC3)nc12` the Potency was inconclusive: 11.2 µM [inhibitor, single point]. For `COC(=O)c1ccc(/C=C2\Oc3ccccc3NC2=O)cc1`, the Potency was inconclusive: 39.8 µM [inhibitor, single point]. `O=C1/C(=C/c2cccs2)NC(=S)N1C1CC1` was tested, and the “FP activity, negative = inhibition” value was inactive: 12.1%. For `NCCNc1ccc2nnnn2n1`, the Potency was inconclusive: 11.2 µM [inhibitor, single point]. `Cc1ccc(NS(=O)(=O)c2ccc(-n3cccn3)cc2)c(C)c1` was tested, and the “FP activity, negative = inhibition” value was inactive: 1.38%. In the case of `C=CCc1cc(CN2CC(C)OC(C)C2)c(O)c(OC)c1` (centres undefined), the Potency is reported as inconclusive: 50.1 µM [inhibitor, single point]. `COc1ccc(-c2cccc(NS(=O)(=O)c3cc([N+](=O)[O-])ccc3C)c2)nn1` was tested, and the Potency was inconclusive: 10 µM [inhibitor, partial curve, poor fit]. In the case of `COc1ccc(/C=C2\SC(=S)N(CC(=O)NCCO)C2=O)cc1`, the Potency is reported as inconclusive: 50.1 µM [inhibitor, single point]. For `CCN(C(=O)COC(=O)c1ccc2[nH]c3c(c2c1)CCCC3)C1CCS(=O)(=O)C1` (centres undefined), the “FP activity, negative = inhibition” value was inactive: -6.58%. With `Cc1ccc(NC(=O)C2CCN(S(=O)(=O)c3ccc4c(c3)OCCCO4)CC2)nc1` the “FP activity, negative = inhibition” value was inactive: 14.7%. `COc1ccc(OC)c(C2N=C(N)Nc3nc4ccccc4n32)c1` (centres undefined) was tested, and the Potency was inconclusive: 3.98 µM [quencher, side channel, partial curve, poor fit]. `Cc1ccc([N+](=O)[O-])cc1NC(=O)c1ccccc1` was tested, and the Potency was inconclusive: 10 µM [inhibitor, single point]. For `O=C(O)CN1C2=NCCCN2c2ccccc21`, the “FP activity, negative = inhibition” value was inactive: -16.8%. For `CCOC(=O)CC1C(=O)NCCN1C(=O)c1c(F)cccc1F` (centres undefined), the Potency was inconclusive: 6.31 µM [inhibitor, full curve, poor fit]. For `O=S(=O)(Nc1nc2ccccc2nc1NCc1ccco1)c1cccs1`, the Potency was inconclusive: 100 µM [inhibitor, single point]. In the case of `Cc1cc2ccccc2n1CCNC(=O)C1CC1`, the Potency is reported as inconclusive: 44.7 µM [inhibitor, single point]. `O=C(Nc1nc2nccc(-c3ccccc3)n2n1)c1ccc(F)cc1` was tested, and the “FP activity, negative = inhibition” value was inactive: -0.569%. With `C/C(=N\NC(=O)NC1CCCCC1)c1ccc(Cl)s1` the Potency was inconclusive: 35.5 µM [inhibitor, partial curve, poor fit]. `CCOc1ccc(S(=O)(=O)N2CC(=O)Nc3ccccc32)cc1` was tested, and the Potency was inconclusive: 20 µM [inhibitor, partial curve, poor fit]. For `Cn1c(-c2ccc(C=O)s2)nc2ccccc21`, the “FP activity, negative = inhibition” value was inactive: 8.3%. For `CSc1ccc(C(=O)c2[nH]c(=O)[nH]c2C)cc1`, the “FP activity, negative = inhibition” value was inactive: 4.07%. For `COc1ccc(NS(=O)(=O)c2ccc(C)c(C(=O)N3CCC3)c2)cc1`, the “FP activity, negative = inhibition” value was inactive: 2.57%. In the case of `COC(=O)C1(C)CN(S(=O)(=O)c2ccc(C)cc2)c2cc(OC)ccc2C1=O` (centres undefined), the “FP activity, negative = inhibition” value is reported as inactive: 5.4%. In the case of `Nc1ccccc1O`, the Potency is reported as inconclusive: 44.7 µM [inhibitor, single point]. `O=C(CN1C(=O)c2ccccc2S1(=O)=O)NCCSCc1c(F)cccc1Cl` was tested, and the Potency was inconclusive: 50.1 µM [inhibitor, single point]. In the case of `CC(=O)N[C@@H](CC(=O)O)C(=O)O`, the Potency is reported as active: 28.2 µM. For `CC(=O)c1ccc(N2CCN(C(=O)c3ccc(OCc4c(C)noc4C)cc3)CC2)cc1`, the “FP activity, negative = inhibition” value was inactive: 1.78%. In the case of `COc1cccc(C(=O)OCC(=O)Nc2cc(C)on2)c1OC`, the Potency is reported as inconclusive: 35.5 µM [inhibitor, single point]. With `COc1cc([N+](=O)[O-])cc(/C=N/N(CCC#N)C(C)=O)c1O` the Potency was inconclusive: 50.1 µM [inhibitor, single point]. For `Cc1ccc(S(=O)(=O)N2CCCCC2)cc1NC(=O)C1CC(=O)N(c2ccc3c(c2)OCCO3)C1` (centres undefined), the Potency was inconclusive: 50.1 µM [inhibitor, single point]. For `Cc1cccc(N2C(=O)/C(=C/c3cccnc3)SC2=S)c1`, the “FP activity, negative = inhibition” value was inactive: 39.2%. For `CCNc1nc(NCc2ccccc2)nc(SCC(N)=O)n1`, the “FP activity, negative = inhibition” value was inactive: -7.54%. `COc1ccc2cc(CCNC(=O)c3cc4ccccc4o3)c(=O)[nH]c2c1` was tested, and the “FP activity, negative = inhibition” value was inactive: 6.09%. For `C/C(=N/NC(=O)CCc1ccccc1)c1ccco1`, the Potency was active: 28.2 µM. `COc1nnc(-c2ccc(N3CCOCC3)c(NC(=O)c3ccco3)c2)c2ccccc12` was tested, and the “FP activity, negative = inhibition” value was inactive: 7.23%. In the case of `Cc1cccc(NC(=O)Cn2cc(C(=O)c3ccco3)c3ccccc32)c1C`, the “FP activity, negative = inhibition” value is reported as inactive: -10.7%. For `Clc1ccc(OCCSc2ncccn2)c2ccccc12`, the “FP activity, negative = inhibition” value was inactive: -9.15%. In the case of `CCOC(=O)Cc1c(C)nc2c(-c3ccccc3)cnn2c1C`, the “FP activity, negative = inhibition” value is reported as inactive: -4.61%. In the case of `COc1ccc(C2=NOC(Cn3nc(-c4ccccc4)cc3C(=O)NCc3cccc(C(F)(F)F)c3)C2)cc1` (centres undefined), the “FP activity, negative = inhibition” value is reported as inactive: 18.1%. For `COc1ccc(C(C)(C)C)cc1NC(=O)C1=CC=CN2CCS(=O)(=O)N=C12`, the Potency was inconclusive: 1.12 µM [inhibitor, full curve, poor fit]. `Cc1ccc(-n2c(=O)c3c(cnn3C)n(Cc3ccc(Cl)cc3)c2=O)cc1` was tested, and the “FP activity, negative = inhibition” value was inactive: -3.09%. In the case of `CCOc1cc(C2c3c(oc4ccccc4c3=O)C(=O)N2Cc2ccc(OC)cc2)ccc1O` (centres undefined), the Potency is reported as inconclusive: 22.4 µM [inhibitor, partial curve]. For `Nc1nc(-c2ccccc2)ns1`, the “FP activity, negative = inhibition” value was inactive: -5.41%. With `O=C(/C=C/c1ccccc1)Nc1ccc(Cl)cn1` the Potency was inconclusive: 50.1 µM [fluorescent, side channel, single point]. `Cc1cc(C)cc(NC(=O)Oc2ccccc2N2CCCCC2)c1` was tested, and the FP activity, negative = inhibition was inconclusive: 42.8% [activator]. In the case of `O=[N+]([O-])c1cnc(N2CCCCC2)c([N+](=O)[O-])c1`, the Potency is reported as inconclusive: 31.6 µM [inhibitor, partial curve, poor fit]. In the case of `Cc1ccn2c(Nc3ccc4c(c3)OCO4)c(-c3ccc(O)cc3)nc2c1`, the Potency is reported as inconclusive: 50.1 µM [quencher, side channel, single point]. In the case of `O=C(Nc1ccc2oc(-c3cccnc3)nc2c1)c1ccc(-c2cccc(OC(F)(F)F)c2)o1`, the “FP activity, negative = inhibition” value is reported as inactive: -23.5%. In the case of `COc1ccc(C(=O)c2c[nH]c(C(=O)N=CN(C)C)c2)cc1`, the Potency is reported as inconclusive: 3.55 µM [inhibitor, partial curve, poor fit]. For `Cc1ccc(/C=C2/NC(=O)N(Cc3ccccc3)C2=O)s1`, the “FP activity, negative = inhibition” value was inactive: -2.06%. For `Cc1ccc(-c2cc(C(=O)NN)n[nH]2)o1`, the Potency was inconclusive: 35.5 µM [quencher, side channel, partial curve, poor fit]. In the case of `CCOC(=O)N1CCC(NC(=O)CSCc2nc(-c3ccc(OCC)cc3)oc2C)CC1`, the Potency is reported as inconclusive: 3.55 µM [inhibitor, single point]. For `Cc1ccc(C(=O)N(Cc2nc3ccccc3c(=O)[nH]2)C2CCCC2)cc1`, the “FP activity, negative = inhibition” value was inactive: 2.19%. In the case of `O=C(CCC1CCCCC1)NCc1ccccn1`, the Potency is reported as inconclusive: 31.6 µM [inhibitor, partial curve]. `O=C1C2CCCN2C(=S)N1C1CCCCC1` (centres undefined) was tested, and the “FP activity, negative = inhibition” value was inactive: 0.174%. For `Cc1cc(N2CCN(C)CC2)nc2ccc(NC(=O)Nc3ccccc3)cc12`, the Potency was inconclusive: 22.4 µM [quencher, side channel, partial curve, poor fit]. For `COc1ccc(OCC(=O)NNC(=O)C2CCN(c3ncnc4sc(C)c(C)c34)CC2)cc1`, the Potency was inconclusive: 3.98 µM [inhibitor, partial curve, poor fit]. With `CN(c1ccccc1)S(=O)(=O)c1ccc(C(=O)Nc2nnc(C3CC3)o2)cc1` the “FP activity, negative = inhibition” value was inactive: 2.08%. In the case of `O=C(NCc1ccc2c(c1)OCO2)NC1CCCCC1`, the Potency is reported as inconclusive: 3.98 µM [inhibitor, partial curve, poor fit]. In the case of `CCCCN(CC)C(=O)CSc1nc2n[nH]c(C)c2c(=N)n1-c1cccc(C)c1`, the Potency is reported as inconclusive: 3.16 µM [inhibitor, partial curve, poor fit].
